Patent publication US20100190693A1
Results are given in words; binding and its absence hold for the method and conditions named. In cells and extracts the contact can be indirect. Some binding calls cover weakened binding; strength is not graded here. Sequences can lack the tags named with a protein.

By UniProt entry, the sequences of proteins in these tests, tags left out.
UniProt Q9H0K1: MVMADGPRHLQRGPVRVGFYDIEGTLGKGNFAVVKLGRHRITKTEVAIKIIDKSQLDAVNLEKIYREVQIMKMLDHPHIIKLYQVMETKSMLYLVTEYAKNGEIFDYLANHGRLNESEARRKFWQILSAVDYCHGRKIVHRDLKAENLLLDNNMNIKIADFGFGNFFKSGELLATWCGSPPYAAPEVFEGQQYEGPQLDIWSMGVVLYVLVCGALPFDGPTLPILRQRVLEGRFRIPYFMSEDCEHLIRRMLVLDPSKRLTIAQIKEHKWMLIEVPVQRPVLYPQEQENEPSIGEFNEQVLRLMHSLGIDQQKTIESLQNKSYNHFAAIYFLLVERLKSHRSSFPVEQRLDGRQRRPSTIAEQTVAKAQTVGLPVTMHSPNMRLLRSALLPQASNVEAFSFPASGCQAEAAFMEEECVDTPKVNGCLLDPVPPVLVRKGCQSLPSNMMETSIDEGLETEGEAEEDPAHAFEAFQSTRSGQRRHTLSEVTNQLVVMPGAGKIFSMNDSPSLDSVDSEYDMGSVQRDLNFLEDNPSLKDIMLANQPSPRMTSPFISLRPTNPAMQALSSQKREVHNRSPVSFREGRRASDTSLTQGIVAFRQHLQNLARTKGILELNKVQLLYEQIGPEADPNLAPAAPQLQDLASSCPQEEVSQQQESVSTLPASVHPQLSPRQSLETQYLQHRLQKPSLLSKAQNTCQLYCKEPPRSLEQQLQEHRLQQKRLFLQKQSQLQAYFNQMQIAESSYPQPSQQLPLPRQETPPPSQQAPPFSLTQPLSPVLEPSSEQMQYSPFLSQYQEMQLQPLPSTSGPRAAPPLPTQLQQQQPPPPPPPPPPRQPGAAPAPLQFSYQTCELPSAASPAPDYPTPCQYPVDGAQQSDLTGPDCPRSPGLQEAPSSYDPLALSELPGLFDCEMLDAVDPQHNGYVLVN

Columns and labels:
[1] = target: T1, Flag-tagged TORC2 (UniProt Q53ET0); test: co-immunoprecipitation from co-transfected HEK293T cells, Western blot (FIG. 6B)
T1 sequence (phosphorylated in cells (Ser171 and other serines), looked up): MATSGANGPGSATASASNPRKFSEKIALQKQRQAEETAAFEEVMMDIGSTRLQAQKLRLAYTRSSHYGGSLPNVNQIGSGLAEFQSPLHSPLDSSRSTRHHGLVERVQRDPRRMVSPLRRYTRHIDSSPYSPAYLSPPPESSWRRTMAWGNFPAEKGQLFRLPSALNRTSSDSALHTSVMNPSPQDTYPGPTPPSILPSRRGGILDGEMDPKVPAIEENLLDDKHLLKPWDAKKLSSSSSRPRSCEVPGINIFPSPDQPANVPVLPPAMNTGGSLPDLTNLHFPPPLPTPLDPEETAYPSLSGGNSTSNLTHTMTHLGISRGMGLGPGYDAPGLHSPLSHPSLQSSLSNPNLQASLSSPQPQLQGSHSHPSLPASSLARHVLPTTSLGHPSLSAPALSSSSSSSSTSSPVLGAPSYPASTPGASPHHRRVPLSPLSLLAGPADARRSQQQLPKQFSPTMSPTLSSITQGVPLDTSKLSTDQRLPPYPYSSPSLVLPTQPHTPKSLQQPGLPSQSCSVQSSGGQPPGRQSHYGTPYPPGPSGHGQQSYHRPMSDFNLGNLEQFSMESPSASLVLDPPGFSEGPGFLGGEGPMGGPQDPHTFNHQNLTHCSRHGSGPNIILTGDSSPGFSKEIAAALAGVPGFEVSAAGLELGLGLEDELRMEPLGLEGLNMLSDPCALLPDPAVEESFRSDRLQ

[2] = target: T1, Flag-tagged TORC2; test: co-immunoprecipitation and kinase assays (FIGS. 6A-6D)
[3] = target: T1, Flag-tagged TORC2; test: co-immunoprecipitation, Western blot; also found by proteomic analysis of Flag-TORC2 immunoprecipitates (SIK2: 6 peptides, 11.7% coverage)

binding [1]: binds
binding [2]: binds
binding [3]: binds
Substance: Salt Inducible Kinase 2 (SIK2) (from UniProt Q9H0K1 1-926) (enzyme)
